No constants are given. Whether binding was seen depends on the method and setting. Binding seen in cells or lysates may run through a third protein. Here binding means that the protein was enriched with, or labelled near, the bait; the list need not be complete.
Target: Ste5-Myc9 (S. cerevisiae) (UniProt P32917)
Assay: affinity purification with mass spectrometry; Ste5-Myc9 IP'd with 9E10 from 10 mg yeast whole cell extract (EY1775, cells without or with 50 nM α factor for 2 hours); 20 mM Tris-HCl pH 7.2, 125 mM potassium acetate, 0.1% Tween 20; Coomassie-stained SDS gel, 70 kDa band digested with trypsin, LC-MS/MS; ImageJ densitometry of the gel

Chains of the proteins cited; added tags and fusions are not shown.
UniProt P32917: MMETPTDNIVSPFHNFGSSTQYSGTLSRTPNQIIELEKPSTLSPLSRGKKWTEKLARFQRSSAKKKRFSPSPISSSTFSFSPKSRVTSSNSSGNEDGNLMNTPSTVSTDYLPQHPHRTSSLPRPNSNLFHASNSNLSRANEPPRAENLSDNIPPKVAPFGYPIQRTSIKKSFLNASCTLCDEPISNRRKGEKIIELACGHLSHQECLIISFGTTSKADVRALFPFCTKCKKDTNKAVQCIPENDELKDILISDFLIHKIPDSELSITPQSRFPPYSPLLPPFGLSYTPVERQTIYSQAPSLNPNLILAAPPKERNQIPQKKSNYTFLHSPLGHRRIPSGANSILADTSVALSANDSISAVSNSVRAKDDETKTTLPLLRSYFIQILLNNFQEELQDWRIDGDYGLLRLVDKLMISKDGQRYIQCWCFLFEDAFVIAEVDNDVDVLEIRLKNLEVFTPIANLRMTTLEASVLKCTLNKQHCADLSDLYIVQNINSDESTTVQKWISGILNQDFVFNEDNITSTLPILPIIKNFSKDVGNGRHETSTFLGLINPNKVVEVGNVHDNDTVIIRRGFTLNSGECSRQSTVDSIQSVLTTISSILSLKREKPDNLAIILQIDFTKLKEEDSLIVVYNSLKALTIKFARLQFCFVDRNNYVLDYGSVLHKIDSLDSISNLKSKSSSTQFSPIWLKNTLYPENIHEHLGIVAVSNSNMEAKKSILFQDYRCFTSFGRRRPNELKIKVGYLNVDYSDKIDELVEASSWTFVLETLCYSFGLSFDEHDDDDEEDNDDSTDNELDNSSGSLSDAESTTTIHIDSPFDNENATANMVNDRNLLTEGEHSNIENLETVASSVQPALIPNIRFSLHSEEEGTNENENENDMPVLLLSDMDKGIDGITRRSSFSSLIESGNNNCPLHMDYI
UniProt P10591: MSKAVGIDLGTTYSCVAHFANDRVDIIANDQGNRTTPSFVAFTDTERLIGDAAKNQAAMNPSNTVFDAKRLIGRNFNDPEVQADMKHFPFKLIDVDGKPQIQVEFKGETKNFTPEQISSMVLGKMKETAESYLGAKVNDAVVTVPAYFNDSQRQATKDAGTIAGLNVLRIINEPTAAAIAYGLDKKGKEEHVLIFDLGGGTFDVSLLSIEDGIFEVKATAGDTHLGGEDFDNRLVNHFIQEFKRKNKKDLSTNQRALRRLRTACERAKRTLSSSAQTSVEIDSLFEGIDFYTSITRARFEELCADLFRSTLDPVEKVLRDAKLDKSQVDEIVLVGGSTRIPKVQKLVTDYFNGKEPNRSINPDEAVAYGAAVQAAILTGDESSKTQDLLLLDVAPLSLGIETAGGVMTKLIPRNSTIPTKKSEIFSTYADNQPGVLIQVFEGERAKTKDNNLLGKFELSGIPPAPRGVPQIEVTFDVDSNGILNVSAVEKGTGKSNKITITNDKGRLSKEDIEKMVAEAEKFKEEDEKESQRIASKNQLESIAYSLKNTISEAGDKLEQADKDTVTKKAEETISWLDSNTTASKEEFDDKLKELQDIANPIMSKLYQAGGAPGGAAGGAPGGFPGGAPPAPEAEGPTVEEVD

With “Hsp70 Ssa1 (endogenous) (from UniProt P10591 1-642)” the binding was “binds”.
